Results are given in words; binding and its absence hold for the method and conditions named. In cells and extracts the contact can be indirect. A yes stands for co-enrichment or nearness to the bait. Other partners may have been found. Sequences can lack the tags named with a protein.
B1: SENP2 (enzyme, UniProt Q9HC62 1-589)
chain: MYRWLVRILGTIFRFCDRSVPPARALLKRRRSDSTLFSTVDTDEIPAKRPRLDCFIHQVKNSLYNAASLFGFPFQLTTKPMVTSACNGTRNVAPSGEVFSNSSSCELTGSGSWNNMLKLGNKSPNGISDYPKIRVTVTRDQPRRVLPSFGFTLNSEGCNRRPGGRRHSKGNPESSLMWKPQEQAVTEMISEESGKGLRRPHCTVEEGVQKEEREKYRKLLERLKESGHGNSVCPVTSNYHSSQRSQMDTLKTKGWGEEQNHGVKTTQFVPKQYRLVETRGPLCSLRSEKRCSKGKITDTETMVGIRFENESRRGYQLEPDLSEEVSARLRLGSGSNGLLRRKVSIIETKEKNCSGKERDRRTDDLLELTEDMEKEISNALGHGPQDEILSSAFKLRITRGDIQTLKNYHWLNDEVINFYMNLLVERNKKQGYPALHVFSTFFYPKLKSGGYQAVKRWTKGVNLFEQEIILVPIHRKVHWSLVVIDLRKKCLKYLDSMGQKGHRICEILLQYLQDESKTKRNSDLNLLEWTHHSMKPHEIPQQLNGSDCGMFTCKYADYISRDKPITFTQHQMPLFRKKMVWEILHQQLL

The chains behind the UniProt entries cited, without tags or fusion partners.
UniProt Q9NWV8: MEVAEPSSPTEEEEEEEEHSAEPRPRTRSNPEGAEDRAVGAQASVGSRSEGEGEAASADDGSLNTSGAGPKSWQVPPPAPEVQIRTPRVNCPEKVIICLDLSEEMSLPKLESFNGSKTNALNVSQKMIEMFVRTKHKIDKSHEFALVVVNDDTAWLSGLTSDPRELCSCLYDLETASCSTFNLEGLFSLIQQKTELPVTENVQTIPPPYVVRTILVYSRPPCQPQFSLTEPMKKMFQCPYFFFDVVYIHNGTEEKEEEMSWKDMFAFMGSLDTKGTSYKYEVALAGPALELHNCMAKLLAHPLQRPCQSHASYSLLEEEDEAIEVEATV
UniProt P46736: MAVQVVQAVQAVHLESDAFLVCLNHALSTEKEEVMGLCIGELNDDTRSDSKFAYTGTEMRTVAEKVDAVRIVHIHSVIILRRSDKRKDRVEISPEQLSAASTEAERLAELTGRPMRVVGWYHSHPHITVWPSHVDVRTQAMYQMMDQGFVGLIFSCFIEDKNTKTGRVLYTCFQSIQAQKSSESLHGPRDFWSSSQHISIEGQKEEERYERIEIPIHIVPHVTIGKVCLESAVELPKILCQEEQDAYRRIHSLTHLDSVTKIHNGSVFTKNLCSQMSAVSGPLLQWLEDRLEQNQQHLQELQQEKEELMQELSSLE
UniProt Q9NXR7: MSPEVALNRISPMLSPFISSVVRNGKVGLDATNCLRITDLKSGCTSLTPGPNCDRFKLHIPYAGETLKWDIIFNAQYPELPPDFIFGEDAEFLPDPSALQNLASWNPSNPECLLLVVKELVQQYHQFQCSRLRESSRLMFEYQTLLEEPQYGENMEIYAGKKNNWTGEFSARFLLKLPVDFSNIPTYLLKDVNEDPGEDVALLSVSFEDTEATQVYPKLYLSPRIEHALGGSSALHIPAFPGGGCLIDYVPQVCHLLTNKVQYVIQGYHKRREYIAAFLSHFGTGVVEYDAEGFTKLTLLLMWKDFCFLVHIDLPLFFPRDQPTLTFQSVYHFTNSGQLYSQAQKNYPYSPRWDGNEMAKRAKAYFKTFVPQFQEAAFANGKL
UniProt Q96RL1: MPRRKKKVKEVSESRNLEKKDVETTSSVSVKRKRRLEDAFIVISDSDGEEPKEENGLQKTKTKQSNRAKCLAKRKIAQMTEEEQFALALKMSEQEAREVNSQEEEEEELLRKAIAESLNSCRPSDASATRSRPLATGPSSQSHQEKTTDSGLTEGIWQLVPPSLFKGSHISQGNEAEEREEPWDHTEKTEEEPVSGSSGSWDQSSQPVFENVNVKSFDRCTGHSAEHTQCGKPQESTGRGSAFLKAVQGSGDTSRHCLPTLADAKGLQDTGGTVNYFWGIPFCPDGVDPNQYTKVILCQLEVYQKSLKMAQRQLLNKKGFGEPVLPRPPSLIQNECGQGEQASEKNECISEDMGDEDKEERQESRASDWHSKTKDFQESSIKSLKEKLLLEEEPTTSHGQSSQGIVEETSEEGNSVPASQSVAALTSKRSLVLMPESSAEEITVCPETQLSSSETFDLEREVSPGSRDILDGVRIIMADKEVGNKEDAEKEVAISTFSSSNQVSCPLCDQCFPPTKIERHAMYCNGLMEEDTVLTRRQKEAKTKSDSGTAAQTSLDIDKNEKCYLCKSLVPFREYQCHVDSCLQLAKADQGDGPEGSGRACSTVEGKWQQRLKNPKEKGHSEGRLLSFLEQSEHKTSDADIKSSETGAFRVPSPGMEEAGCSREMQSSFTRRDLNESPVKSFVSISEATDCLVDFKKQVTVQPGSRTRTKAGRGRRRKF
UniProt Q93009: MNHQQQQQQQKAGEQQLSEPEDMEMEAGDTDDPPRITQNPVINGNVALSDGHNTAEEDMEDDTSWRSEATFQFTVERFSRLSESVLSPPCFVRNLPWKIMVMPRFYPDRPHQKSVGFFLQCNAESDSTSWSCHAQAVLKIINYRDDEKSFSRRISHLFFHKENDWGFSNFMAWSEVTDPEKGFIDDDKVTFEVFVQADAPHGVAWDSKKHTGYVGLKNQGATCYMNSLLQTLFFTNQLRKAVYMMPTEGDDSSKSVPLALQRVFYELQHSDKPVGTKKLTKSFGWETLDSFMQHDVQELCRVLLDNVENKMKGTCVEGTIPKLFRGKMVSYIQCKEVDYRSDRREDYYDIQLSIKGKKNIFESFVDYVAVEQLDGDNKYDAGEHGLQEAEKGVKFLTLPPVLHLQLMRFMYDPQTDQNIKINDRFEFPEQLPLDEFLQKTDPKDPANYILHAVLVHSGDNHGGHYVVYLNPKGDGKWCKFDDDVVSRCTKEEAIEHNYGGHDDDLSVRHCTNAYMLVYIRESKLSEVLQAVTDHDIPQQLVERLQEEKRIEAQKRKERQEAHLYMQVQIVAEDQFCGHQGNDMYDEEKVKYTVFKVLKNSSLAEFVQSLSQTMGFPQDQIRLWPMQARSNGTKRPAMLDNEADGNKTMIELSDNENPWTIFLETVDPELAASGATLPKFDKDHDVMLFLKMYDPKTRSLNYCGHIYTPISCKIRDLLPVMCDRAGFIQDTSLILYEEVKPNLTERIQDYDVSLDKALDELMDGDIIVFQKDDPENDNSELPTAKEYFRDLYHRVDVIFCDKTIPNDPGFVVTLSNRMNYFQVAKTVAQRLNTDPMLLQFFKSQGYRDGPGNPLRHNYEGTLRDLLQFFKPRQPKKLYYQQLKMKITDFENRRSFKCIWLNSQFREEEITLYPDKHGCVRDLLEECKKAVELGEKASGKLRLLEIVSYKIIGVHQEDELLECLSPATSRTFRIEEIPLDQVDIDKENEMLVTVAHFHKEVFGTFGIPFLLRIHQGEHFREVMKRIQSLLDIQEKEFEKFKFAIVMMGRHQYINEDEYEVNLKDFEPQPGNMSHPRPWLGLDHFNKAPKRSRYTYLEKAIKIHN
UniProt P51784: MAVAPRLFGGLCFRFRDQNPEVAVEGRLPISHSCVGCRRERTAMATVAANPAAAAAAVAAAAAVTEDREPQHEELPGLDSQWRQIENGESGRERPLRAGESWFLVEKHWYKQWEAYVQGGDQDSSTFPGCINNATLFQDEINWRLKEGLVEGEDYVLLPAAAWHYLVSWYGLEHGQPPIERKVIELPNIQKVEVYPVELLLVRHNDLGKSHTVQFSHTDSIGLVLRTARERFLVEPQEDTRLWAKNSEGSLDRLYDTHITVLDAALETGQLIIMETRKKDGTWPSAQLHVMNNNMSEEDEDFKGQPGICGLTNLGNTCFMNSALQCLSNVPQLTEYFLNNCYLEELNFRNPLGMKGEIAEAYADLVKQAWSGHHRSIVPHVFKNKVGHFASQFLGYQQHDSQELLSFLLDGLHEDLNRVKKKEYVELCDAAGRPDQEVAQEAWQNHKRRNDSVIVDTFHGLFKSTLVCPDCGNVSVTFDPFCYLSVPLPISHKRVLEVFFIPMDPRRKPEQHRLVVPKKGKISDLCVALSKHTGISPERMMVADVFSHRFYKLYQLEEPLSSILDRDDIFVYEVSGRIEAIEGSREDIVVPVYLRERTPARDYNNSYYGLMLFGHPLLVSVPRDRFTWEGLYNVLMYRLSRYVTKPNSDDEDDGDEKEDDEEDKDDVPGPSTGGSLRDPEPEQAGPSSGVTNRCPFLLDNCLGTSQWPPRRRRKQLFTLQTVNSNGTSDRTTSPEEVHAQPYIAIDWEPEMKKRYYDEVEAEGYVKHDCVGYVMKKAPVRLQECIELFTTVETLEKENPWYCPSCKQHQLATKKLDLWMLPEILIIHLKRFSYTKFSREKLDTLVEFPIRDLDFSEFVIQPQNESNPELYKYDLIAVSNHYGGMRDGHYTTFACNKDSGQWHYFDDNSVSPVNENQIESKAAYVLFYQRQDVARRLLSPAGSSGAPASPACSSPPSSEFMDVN
UniProt Q70CQ3: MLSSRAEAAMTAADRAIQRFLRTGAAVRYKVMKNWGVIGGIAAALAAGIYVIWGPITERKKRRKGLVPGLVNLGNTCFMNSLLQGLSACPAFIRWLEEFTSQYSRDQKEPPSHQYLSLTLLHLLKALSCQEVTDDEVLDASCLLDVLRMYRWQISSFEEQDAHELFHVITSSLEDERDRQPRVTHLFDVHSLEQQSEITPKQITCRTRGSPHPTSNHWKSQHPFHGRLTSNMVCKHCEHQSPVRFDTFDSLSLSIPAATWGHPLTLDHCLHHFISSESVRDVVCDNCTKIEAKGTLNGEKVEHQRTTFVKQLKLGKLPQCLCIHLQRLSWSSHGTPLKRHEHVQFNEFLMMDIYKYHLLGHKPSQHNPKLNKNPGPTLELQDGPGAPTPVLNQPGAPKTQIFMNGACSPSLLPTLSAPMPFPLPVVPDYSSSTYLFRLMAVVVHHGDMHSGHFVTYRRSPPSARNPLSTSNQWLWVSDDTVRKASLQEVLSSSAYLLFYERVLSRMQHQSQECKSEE
UniProt Q02880: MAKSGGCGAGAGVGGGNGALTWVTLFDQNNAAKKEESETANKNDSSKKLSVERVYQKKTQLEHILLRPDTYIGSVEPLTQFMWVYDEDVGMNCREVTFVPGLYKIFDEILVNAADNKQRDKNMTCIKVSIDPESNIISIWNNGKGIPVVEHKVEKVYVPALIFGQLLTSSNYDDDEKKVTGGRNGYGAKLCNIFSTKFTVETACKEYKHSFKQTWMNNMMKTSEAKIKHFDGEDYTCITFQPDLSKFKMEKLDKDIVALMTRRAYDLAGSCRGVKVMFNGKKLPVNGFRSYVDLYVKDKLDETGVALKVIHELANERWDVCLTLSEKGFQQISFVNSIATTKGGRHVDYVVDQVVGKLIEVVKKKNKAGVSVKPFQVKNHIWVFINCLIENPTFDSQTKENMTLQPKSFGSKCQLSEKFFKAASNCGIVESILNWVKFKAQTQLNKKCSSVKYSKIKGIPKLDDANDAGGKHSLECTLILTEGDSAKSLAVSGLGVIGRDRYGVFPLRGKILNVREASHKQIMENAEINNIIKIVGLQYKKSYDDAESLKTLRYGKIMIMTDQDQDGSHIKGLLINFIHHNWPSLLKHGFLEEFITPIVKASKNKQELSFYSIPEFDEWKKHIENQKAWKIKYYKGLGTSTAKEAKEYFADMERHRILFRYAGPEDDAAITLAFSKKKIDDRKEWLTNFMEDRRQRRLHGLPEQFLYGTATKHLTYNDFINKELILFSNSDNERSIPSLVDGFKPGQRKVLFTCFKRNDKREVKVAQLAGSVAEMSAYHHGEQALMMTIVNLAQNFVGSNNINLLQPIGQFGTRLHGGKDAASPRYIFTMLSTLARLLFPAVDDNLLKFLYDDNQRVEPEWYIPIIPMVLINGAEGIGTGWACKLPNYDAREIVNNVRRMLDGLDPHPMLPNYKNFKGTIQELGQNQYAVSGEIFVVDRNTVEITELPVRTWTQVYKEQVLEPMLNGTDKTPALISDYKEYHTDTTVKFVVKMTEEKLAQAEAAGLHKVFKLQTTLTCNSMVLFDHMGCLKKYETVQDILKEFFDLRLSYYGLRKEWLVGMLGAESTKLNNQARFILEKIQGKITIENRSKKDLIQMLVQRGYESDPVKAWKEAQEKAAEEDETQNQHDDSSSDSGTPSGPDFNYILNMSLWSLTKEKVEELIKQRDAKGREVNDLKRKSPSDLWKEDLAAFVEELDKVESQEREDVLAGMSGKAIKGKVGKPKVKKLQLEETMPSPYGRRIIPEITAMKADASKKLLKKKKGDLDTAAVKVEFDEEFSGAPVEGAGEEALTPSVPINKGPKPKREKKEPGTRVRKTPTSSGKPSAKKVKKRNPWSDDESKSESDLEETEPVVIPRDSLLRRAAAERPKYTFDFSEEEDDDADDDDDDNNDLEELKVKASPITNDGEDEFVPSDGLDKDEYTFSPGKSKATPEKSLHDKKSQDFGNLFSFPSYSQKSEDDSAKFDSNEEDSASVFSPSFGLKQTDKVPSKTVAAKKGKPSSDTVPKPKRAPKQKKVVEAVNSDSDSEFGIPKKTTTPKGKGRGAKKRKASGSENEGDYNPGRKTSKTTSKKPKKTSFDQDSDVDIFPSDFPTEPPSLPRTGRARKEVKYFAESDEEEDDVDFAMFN

target: T1, FLAG-TOPORS (UniProt Q9NS56); test: affinity purification with mass spectrometry; FLAG-TOPORS or empty vector expressed in HEK293T in triplicate; FLAG immunoprecipitation, on-bead trypsin digestion, LC-MS/MS, label-free quantitation
T1 sequence: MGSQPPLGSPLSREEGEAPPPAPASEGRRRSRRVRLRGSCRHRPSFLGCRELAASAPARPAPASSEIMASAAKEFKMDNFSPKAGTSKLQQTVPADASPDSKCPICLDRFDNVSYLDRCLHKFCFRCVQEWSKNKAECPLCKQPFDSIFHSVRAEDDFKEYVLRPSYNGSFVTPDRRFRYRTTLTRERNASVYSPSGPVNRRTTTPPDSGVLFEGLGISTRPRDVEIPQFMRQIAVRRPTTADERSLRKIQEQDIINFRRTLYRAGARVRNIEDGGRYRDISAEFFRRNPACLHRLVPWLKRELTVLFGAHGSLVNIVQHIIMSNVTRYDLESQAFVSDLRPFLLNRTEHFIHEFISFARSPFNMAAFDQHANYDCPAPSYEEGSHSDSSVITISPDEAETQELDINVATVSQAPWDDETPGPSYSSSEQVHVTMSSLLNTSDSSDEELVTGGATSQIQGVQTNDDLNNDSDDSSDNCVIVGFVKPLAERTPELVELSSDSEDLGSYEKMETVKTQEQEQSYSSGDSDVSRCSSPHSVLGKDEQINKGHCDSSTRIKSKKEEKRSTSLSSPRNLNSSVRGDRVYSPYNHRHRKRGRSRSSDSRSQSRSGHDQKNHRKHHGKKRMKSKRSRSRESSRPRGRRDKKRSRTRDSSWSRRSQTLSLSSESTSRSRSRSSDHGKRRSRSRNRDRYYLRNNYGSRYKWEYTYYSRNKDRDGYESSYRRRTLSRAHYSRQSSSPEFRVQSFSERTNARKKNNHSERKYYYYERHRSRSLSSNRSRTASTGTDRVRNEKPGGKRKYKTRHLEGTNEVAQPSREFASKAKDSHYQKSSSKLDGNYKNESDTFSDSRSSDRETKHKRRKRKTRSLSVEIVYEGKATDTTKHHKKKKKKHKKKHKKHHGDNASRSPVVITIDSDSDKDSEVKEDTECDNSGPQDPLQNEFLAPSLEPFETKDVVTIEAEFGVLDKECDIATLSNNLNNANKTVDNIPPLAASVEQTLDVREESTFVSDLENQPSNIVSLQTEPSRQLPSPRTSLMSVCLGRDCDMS

Molecule | binding
BABAM1/NBA1/MERIT40 (from UniProt Q9NWV8 1-329) | binds
BRCC3/BRCC36 (from UniProt P46736 1-316) (enzyme) | binds
BRE/BRCC45 (from UniProt Q9NXR7 1-383) | binds
RAP80 (from UniProt Q96RL1 1-719) | binds
USP7 (endogenous) (from UniProt Q93009 1-1102) (enzyme) | binds
USP11 (from UniProt P51784 1-963) (enzyme) | binds
USP30 (from UniProt Q70CQ3 1-517) (enzyme) | binds
topoisomerase 2B (from UniProt Q02880 1-1626) (enzyme) | binds
B1 | binds
